Laboratory results from PubChem BioAssay AID743255 (National Center for Advancing Translational Sciences (NCATS), 2014).
Among all 390,000 compounds or so, about 910 (0.23%) were called active. Inconclusive means that the source gave no clear call. Such entries were picked first, then a sample of the others. Calls come from the whole dose curve; as a rule, active = well fitted inhibition curve with a large enough effect; inconclusive = small, poorly fitted or top-dose-only effect; inactive = no such curve, though single readings can be large or run the other way. Potencies of inconclusive entries are doubtful fits and often do not repeat.

The chains behind the UniProt entries cited, without tags or fusion partners. Where a name states a change or a piece, a line headed by the entry shows the natural chain unless it says otherwise.
UniProt O94782: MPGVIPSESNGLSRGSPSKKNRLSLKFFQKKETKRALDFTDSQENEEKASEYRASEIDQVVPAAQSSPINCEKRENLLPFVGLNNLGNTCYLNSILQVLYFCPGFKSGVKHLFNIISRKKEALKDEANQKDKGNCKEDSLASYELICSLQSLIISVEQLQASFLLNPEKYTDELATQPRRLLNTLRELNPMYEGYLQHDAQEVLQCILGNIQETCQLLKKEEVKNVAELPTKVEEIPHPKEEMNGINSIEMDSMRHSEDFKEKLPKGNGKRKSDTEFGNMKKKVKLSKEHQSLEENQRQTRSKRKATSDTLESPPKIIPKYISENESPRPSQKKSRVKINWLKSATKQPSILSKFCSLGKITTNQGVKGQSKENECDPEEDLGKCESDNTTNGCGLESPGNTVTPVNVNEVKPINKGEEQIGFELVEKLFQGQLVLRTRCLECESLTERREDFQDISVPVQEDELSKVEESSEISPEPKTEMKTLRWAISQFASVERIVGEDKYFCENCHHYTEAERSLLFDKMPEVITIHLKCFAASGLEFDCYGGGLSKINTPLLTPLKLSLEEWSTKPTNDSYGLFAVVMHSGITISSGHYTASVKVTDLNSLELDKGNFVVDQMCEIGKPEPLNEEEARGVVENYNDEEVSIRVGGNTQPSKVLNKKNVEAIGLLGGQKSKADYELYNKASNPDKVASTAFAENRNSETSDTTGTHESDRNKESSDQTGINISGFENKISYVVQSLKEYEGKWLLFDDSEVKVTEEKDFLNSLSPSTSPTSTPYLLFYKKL

target: Ubiquitin carboxyl-terminal hydrolase 1 (Homo sapiens) (UniProt O94782); assay: Inhibitors of USP1/UAF1: Primary Screen; details: recombinant USP1/UAF1, Ub-Rhodamine cleavage fluorescence; activity change, negative = inhibition: at 57.1 µM (top of the series); note: nearly all actives have a fitted effect of over 60% in size
How it was run: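 High-throughput fluorogenic screen: 1nM USP1/UAF1 complex, Ub-Rho substrate 150nM final, 50mM HEPES pH 7.8 with 0.5mM EDTA, 0.1 mg/ml BSA, 1mM TCEP and 0.01% Tween-20.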
% is set by controls: 0 for no effect and ±100 for the full control effect; potency is the fitted concentration of half-maximal effect.

Potency, inconclusive:
Cc1cc(Oc2ccc(=O)n(C)n2)nc(SCCOc2ccccc2)n1 35.5 µM [inhibitor, partial curve, poor fit]
CC1C(=O)N2CCCc3cc(S(=O)(=O)NCc4ccc(Cl)cc4)cc1c32 (stereo unspecified) 31.6 µM [inhibitor, partial curve, poor fit]
COc1ccc(NC(=O)CN2C(=O)C(=O)c3ccccc32)c(OC)c1 0.631 µM [inhibitor, full curve, poor fit]
N#Cc1c(Nc2cccc(F)c2)sc2c(O)cc(=O)[nH]c12 2.24 µM [inhibitor, full curve]
CCOC(=O)C1CCN(c2nc3ccccc3nc2C(C#N)C(=O)OC(C)C)CC1 (stereo unspecified) 39.8 µM [inhibitor, partial curve, poor fit]
CCN(c1ccccc1)S(=O)(=O)c1cccc(C(=O)O)c1 35.5 µM [inhibitor, single point]
Cc1cnc(C=NNC(N)=S)c2cccc(N)c12 10 µM [inhibitor, partial curve]
Cc1ccc(C(=O)N/C(=C\C=C\c2ccccc2)C(=O)NCc2ccco2)cc1 7.94 µM [inhibitor, partial curve, poor fit]
COc1ccc(N(C)S(=O)(=O)c2cccc(C(=O)NC3CCC(C)CC3)c2)cc1 (stereo unspecified) 6.31 µM [inhibitor, full curve, poor fit]
CC1CC(C)CN(C(=O)COC(=O)c2ccc3c(c2)OCCO3)C1 (stereo unspecified) 50.1 µM [inhibitor, partial curve, poor fit]
O=C(CN1C(=O)COc2ccc(Cl)cc21)Nc1cccc(C(=O)O)c1 7.08 µM [inhibitor, full curve, poor fit]
COc1ccc(C)cc1S(=O)(=O)n1cnc(C)c1 0.316 µM [inhibitor, full curve, poor fit]
Cc1ccc(CCNC(=O)CCCn2c(=O)c3cccn3c3ccc(F)cc32)cc1 0.631 µM [inhibitor, full curve, poor fit]
COc1ccccc1C(=O)NCCN=C1NS(=O)(=O)c2ccccc21 3.55 µM [inhibitor, full curve, poor fit]
CCc1ccccc1NC(=O)Cn1nnc(C(=O)NCc2cccc(OC)c2)c1N 5.62 µM [inhibitor, partial curve]
COc1ccc(CNC(=O)CCc2c(C)nc3c4cccnc4nn3c2C)cc1 44.7 µM [inhibitor, partial curve, poor fit]
O=C(Nc1ccccc1N1CCN(c2ccccc2)CC1)C1CCCCC1 0.282 µM [inhibitor, full curve]
Cc1cccc(OCC(=O)N(Cc2cccc(Cl)c2)Cc2ccco2)c1C 63.1 µM [inhibitor, partial curve, poor fit]
CC(C)S(=O)(=O)c1oc(-c2ccc(F)cc2)nc1S(=O)(=O)c1ccc(F)cc1 10 µM [inhibitor, partial curve]
O=C(c1ccc(CSc2nc3ccncc3n2Cc2ccccc2F)cc1)N1CCCCCC1 7.08 µM [inhibitor, partial curve, poor fit]
COc1ccc2[nH]cc(CCNC(=O)Nc3ccc(F)cc3)c2c1 0.282 µM [inhibitor, full curve, poor fit]
Cc1ccc(C)c(N2CCN(C(=O)CCc3nc(-c4cccc(Cl)c4)no3)CC2)c1 44.7 µM [inhibitor, partial curve, poor fit]
COc1ccccc1CCNC(=O)CSc1ccc(-c2ccco2)nn1 5.62 µM [inhibitor, partial curve]
CC(C)(OC(=O)c1ccc(F)cc1)c1cc2ccccc2c(=O)o1 7.08 µM [inhibitor, partial curve]
CN(Cc1ccccc1)C(=O)c1ccc(NC(=O)Cc2ccc(NC(=O)C3CCN(C(=O)c4ccccc4)CC3)cc2)cc1 5.01 µM [inhibitor, partial curve]
CCCCN(CC)c1ncnc2c1sc1nc(N3CCOCC3)c3c(c12)CCCC3 14.1 µM [inhibitor, partial curve]
CCC(C)NC(=O)C1CCN(C(=O)c2cc3sccc3n2Cc2ccc(Cl)cc2)CC1 (stereo unspecified) 0.794 µM [inhibitor, full curve]
Cc1ccc2c(c1)cc1c(=O)n(CC(=O)NCc3ccco3)nc(C)n12 50.1 µM [inhibitor, partial curve, poor fit]
COc1cc(OC)cc(-c2nnc(SCC(=O)N3CCC(C)CC3)o2)c1 0.251 µM [inhibitor, full curve, poor fit]
Cc1cccn2c(=O)c3cc(C(=O)NCCc4ccc(S(N)(=O)=O)cc4)n(C)c3nc12 14.1 µM [inhibitor, partial curve]

Part of the list above in order of count of non-hydrogen atoms, high to low.
Potency, inconclusive:
CCc1ccccc1NC(=O)Cn1nnc(C(=O)NCc2cccc(OC)c2)c1N 5.62 µM [inhibitor, partial curve]
COc1ccc(N(C)S(=O)(=O)c2cccc(C(=O)NC3CCC(C)CC3)c2)cc1 (stereo unspecified) 6.31 µM [inhibitor, full curve, poor fit]
COc1cc(OC)cc(-c2nnc(SCC(=O)N3CCC(C)CC3)o2)c1 0.251 µM [inhibitor, full curve, poor fit]

Following part:

Potency, active:
O=C(c1ccco1)[C@@H]1[C@@H]2C(=O)N(c3ccccc3)C(=O)[C@@H]2C2c3ccccc3C=CN21 (stereo partly specified) 10 µM

Activity change, negative = inhibition, inactive:
C/C(=N\Nc1cccc2cccnc12)c1ccc[nH]1 -2.6%
COc1ccc(-c2noc(CC(=O)N(C)c3cc(Cl)c(OC)cc3OC)n2)cc1 -6.62%
CCOc1ccccc1CNC(=O)CN1C(=O)c2cccnc2Oc2ccc(C)cc21 -24.8%
CCOC(=O)c1c(C)nc2cc(C)ccn12 -1.38%
CNCCC=C1c2ccccc2C=Cc2ccccc21 -14.1%
COc1cccc(C(=O)NNC(=S)NC2CCCCC2)c1 -9.43%
COc1ccc(-n2c(C)cc(C(=O)CN3C(=O)c4ccccc4C3=O)c2C)cc1 -18.8%
CCCC(=O)Nc1nnc(SCc2cc(=O)c3cc(C)ccc3[nH]2)s1 9.15%
O=C(CSc1nc2ccccc2c(=O)n1Cc1ccco1)N1CCCCCC1 -23.4%
S=C(NCCCN1CCOCC1)NCCCN1CCOCC1 -0.399%
